# Measurements from PMC4931344.
# These are yes or no findings as the source states them, for the method shown. Binding seen in cells or lysates may run through a third protein. Where a sequence is shown, tags or fusion partners need not be part of it.
# Target: yeast Hsp90 (yHsp90, also known as Hsp82), endogenous (S. cerevisiae (endogenous in BY4741)) (UniProt P02829)
# Test: co-IP; BY4741 yeast expressing GAL1-LST4-GST grown on glucose or galactose at 30 °C for 8 h; endogenous yHsp90 immunoprecipitated, immunoblot for Lst4-GST
binder,measurement,value
"Lst4–GST (protein, UniProt P34239 1-828) MLGNLLRNKTSSSGFEKSSEHSDFSSVVPNVPVYCKAASTGTTKTAAGALLDTAVNVEKPSEMLSTTSPPILDHISDDLKLKLFGSRDIPYSRPIDTLQNNGGLGTDKITSINEKTYAFRILIIEEAGQMACRNNYRDIFDYTTSKISNSMEQIRPSELKEYIFGSPVRSSDLTQCDKIRTIPNSDLVLITRIFYYTHQYNRIAISLCIPRILLPVVAESWSSISSWLTQTQKMLIGFLTKNRIMQENTGNYSNNSVIKLSNIDIRTHYPKEIEIMVQTLQKRVIPGLRSMSEIPRLFLYPETFKEFVHVWFKSIFNWIEIKDGPKLGFLPLLMAMIISDYRHTIRELKTSKIVILSGNMVVANKLLFILSALLEPKYKGQITIRRENIRSDSSAVSRNKSNNNFVDKPETELSTLTSTDNLLSRTENNSNHNYNNSNVSSNSIGSPNFHSLRKGWQIPNRRNSNTSVSVSSSESLAEVIQPSSFKSGSSSLHYLSSSISSQPGSYGSWFNKRPTISQFFQPSPSLKHNESWERLQTTAGNMQRTSSSSSLQQATSRLSLTTPQQSPSISEYDEYPWMGTPGSPNVGDVSHAPPLVKNISYKFPLKNVELKRDCQRISQDDLLDEAFERICQPSLADLNSTYEIFPGNSSYADILTTDSDIDDGLMNKPLELLPKYTMYLTHFNNFFQLQACPAGQESESRITNSMKIDLLKADYTRSLLVSLRSRDIRDVALKREFTGNNNNNSNQNIYDENFVGKRKYVLKQKTRKIFSCGKIGKLSTSLENCVNFVENSIKSAMMLYDDNGIDSELRDSEALRIFSSLVHYCNAG",binding,no binding
